For at least one compound, name, drawing or mass did not settle the structure.
System: male Long Evans rats
Assay: Novel Object Recognition (NOR) test, MK-801-induced memory deficit
Assay type: in vivo, rat
Settings: Galantamine 1 mg/kg; compared to Vehicle/MK-801 group

COc1ccc2c3c1O[C@H]1C[C@@H](O)C=C[C@@]31CCN(C)C2 [Galantamine]
Reversal of MK-801-induced memory deficits, 0-3 minute time range: significantly reversed
Reversal of MK-801-induced memory deficits, 0-5 minute time range: significantly reversed
